The list shows a part of the results.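 Rule for the calls: active = dose-dependent thermal stabilisation significant by F-test of dose-response against flat model at 10% FDR; inactive = not significant.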

Protein sequences, listed by entry. Tags and fused reporters are not part of them. Lines headed by an entry give the natural chain unless they say otherwise; changes in a name come on top.
UniProt Q9Y365: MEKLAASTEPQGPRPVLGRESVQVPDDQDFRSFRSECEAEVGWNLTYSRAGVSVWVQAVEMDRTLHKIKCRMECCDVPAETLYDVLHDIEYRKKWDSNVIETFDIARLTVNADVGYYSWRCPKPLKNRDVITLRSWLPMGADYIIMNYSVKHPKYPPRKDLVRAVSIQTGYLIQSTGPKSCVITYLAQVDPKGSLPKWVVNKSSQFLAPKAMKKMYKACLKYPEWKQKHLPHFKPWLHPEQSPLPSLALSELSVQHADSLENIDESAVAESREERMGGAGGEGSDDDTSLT
UniProt Q04837: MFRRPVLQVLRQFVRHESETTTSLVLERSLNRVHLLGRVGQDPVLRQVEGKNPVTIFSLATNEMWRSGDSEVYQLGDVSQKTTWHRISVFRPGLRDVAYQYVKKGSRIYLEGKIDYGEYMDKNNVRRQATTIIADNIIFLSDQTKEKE
UniProt Q13425: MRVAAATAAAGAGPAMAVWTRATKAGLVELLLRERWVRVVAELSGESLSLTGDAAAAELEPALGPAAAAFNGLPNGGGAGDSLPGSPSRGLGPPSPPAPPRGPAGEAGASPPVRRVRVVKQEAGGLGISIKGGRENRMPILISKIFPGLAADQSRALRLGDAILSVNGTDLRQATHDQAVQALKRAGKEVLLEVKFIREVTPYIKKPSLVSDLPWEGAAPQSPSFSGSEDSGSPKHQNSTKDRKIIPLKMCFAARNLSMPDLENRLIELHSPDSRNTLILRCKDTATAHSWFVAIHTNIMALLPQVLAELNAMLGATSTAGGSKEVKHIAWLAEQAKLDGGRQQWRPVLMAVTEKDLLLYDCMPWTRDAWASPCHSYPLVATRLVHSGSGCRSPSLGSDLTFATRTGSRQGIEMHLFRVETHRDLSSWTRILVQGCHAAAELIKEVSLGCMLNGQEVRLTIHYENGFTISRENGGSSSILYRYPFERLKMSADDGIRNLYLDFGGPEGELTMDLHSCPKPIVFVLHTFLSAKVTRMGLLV
UniProt Q9Y3F4: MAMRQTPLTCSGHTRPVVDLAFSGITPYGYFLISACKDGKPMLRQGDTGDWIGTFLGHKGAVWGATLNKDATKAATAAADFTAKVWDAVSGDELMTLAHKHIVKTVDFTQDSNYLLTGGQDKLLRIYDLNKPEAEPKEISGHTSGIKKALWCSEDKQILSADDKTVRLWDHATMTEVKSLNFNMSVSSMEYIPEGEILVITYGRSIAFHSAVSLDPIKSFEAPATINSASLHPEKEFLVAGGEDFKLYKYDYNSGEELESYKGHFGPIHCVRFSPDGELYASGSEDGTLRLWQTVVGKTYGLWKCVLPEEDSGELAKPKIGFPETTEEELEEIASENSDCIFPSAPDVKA
UniProt P53814: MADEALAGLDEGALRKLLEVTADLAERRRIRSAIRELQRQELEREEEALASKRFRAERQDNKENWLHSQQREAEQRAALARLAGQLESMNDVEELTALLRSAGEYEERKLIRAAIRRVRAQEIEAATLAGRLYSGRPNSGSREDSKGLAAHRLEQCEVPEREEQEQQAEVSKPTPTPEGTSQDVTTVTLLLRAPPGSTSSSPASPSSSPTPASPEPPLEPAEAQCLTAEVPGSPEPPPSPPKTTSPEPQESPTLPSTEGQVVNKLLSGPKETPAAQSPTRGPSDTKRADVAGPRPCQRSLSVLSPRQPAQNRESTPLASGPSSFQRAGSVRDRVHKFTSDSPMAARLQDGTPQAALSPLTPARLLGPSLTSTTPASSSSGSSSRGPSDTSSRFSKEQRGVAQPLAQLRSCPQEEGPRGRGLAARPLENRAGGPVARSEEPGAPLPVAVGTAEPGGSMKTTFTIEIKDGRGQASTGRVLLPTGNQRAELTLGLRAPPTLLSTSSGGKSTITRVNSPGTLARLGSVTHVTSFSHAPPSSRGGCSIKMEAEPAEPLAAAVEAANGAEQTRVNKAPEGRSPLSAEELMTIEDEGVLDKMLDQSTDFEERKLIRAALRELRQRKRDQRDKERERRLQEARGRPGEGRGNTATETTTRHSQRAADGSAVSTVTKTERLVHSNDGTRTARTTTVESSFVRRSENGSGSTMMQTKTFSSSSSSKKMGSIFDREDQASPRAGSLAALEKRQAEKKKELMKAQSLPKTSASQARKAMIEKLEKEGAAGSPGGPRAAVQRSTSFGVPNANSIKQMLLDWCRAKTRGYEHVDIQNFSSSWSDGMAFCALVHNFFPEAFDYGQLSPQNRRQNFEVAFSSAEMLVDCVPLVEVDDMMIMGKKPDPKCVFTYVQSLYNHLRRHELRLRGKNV
UniProt Q9UH65: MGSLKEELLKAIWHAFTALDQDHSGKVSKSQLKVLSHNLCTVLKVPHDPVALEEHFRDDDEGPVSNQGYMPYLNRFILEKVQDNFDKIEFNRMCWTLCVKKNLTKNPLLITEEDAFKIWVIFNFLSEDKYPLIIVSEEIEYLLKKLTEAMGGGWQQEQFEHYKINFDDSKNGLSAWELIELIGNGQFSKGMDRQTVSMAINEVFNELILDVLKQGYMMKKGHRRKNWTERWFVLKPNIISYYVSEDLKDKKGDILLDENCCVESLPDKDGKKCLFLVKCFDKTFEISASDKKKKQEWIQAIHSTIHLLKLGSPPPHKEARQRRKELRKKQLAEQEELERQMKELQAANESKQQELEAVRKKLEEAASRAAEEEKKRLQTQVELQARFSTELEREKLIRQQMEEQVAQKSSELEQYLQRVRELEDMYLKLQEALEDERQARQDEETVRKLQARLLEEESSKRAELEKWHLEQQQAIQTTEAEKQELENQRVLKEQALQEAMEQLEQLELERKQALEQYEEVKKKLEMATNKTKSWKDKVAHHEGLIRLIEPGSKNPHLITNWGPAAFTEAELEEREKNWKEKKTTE
UniProt Q76I76: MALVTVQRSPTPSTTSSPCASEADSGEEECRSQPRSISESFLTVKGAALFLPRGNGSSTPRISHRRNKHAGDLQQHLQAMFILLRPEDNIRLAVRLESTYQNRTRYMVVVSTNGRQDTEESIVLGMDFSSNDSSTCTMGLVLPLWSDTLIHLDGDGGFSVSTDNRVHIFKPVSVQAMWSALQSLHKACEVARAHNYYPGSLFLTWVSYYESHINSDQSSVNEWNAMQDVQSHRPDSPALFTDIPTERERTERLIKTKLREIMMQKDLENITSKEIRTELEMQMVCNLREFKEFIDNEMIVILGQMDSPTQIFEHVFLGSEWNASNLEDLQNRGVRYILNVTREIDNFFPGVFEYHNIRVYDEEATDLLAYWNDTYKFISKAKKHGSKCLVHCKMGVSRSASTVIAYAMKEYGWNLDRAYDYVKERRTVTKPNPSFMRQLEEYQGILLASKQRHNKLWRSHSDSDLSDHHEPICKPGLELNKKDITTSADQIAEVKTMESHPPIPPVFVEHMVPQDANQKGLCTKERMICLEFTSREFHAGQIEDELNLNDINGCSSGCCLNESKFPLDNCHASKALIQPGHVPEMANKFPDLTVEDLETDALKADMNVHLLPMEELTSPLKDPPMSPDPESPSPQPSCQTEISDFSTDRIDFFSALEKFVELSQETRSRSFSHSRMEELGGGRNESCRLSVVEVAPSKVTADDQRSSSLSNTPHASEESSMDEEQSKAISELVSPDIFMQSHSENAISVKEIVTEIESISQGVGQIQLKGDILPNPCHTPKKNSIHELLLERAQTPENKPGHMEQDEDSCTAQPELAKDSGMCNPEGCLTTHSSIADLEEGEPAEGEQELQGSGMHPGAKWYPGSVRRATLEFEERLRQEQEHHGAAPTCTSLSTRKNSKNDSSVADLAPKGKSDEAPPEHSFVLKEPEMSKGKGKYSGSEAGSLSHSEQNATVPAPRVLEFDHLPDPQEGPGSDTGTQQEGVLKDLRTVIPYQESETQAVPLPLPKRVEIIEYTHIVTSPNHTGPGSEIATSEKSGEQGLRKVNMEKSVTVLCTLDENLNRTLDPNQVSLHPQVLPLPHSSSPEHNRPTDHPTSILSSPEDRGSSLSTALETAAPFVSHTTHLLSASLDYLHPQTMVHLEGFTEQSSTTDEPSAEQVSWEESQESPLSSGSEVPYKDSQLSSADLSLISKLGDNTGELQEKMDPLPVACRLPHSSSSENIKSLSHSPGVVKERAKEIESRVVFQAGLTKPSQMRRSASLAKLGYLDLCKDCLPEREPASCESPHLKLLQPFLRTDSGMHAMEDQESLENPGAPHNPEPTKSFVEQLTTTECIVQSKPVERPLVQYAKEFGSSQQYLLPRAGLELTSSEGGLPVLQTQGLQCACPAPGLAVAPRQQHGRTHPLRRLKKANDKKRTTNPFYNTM
UniProt P55769: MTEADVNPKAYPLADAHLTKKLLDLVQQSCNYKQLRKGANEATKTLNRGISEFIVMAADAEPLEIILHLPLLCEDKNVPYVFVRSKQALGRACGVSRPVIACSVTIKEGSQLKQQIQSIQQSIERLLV
UniProt P12755: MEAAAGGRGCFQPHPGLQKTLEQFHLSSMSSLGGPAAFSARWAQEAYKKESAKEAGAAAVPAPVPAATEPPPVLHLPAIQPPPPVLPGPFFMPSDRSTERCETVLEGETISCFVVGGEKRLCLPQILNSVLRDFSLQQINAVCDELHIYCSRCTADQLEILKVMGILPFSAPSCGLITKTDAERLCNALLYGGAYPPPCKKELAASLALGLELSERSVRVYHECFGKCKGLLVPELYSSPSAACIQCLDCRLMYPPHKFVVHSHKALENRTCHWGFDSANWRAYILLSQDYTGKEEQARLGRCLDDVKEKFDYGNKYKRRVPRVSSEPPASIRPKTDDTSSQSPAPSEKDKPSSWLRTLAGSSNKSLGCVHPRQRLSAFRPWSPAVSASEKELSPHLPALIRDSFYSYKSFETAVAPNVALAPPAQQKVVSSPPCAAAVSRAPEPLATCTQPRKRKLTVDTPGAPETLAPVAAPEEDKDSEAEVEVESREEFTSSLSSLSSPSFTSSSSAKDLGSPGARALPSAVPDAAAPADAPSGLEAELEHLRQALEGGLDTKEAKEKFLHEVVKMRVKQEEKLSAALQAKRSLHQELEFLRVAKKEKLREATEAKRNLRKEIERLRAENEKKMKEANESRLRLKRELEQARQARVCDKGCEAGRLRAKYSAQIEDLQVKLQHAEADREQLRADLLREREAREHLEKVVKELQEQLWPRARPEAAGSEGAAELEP
UniProt Q9Y657, whole entry: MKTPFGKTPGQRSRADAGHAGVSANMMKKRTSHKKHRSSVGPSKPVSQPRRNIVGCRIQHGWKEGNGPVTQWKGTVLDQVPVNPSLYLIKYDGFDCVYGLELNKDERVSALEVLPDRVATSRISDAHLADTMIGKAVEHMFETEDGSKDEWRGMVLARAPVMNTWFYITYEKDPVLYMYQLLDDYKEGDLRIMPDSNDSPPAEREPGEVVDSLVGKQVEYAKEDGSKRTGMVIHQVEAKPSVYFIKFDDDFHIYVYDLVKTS
UniProt Q6P1X5, whole entry: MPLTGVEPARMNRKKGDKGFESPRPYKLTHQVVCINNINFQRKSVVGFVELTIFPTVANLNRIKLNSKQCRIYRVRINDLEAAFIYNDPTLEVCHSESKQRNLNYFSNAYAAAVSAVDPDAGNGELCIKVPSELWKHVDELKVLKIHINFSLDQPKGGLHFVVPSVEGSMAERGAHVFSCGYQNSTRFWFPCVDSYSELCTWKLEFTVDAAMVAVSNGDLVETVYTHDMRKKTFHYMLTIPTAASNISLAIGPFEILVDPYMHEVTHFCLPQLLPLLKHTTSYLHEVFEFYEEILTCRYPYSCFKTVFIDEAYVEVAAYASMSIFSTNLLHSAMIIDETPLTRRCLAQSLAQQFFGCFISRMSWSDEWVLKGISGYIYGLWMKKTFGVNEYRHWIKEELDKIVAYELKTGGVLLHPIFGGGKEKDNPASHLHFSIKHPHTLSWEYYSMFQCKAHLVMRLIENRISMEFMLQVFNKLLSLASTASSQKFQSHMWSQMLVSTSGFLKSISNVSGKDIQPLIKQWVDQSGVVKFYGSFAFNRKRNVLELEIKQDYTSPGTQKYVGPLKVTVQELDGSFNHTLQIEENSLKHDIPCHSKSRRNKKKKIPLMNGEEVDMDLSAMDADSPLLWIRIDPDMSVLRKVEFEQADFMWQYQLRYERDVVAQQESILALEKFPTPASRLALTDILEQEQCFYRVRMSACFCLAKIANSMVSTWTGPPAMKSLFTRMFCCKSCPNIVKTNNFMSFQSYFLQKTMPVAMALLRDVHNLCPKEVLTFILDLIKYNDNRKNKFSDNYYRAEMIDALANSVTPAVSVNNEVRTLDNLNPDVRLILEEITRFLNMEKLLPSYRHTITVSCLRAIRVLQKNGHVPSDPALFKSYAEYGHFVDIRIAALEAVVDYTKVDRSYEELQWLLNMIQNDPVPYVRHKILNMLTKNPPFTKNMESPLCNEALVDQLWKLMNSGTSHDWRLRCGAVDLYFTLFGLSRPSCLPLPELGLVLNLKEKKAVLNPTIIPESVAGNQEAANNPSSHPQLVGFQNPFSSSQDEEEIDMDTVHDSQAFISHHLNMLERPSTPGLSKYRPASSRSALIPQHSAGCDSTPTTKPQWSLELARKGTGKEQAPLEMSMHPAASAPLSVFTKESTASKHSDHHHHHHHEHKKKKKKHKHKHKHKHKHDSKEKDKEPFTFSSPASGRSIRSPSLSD

Compound in this experiment: Nc1nc2c(ncn2[C@@H]2O[C@H](COP(=O)(O)OP(=O)(O)OP(=O)(O)O)[C@@H](O)[C@H]2O)c(=O)[nH]1
The experiment can be described thus: dose-dependent thermal stabilisation call (2D-TPP, DLPTP, 10% FDR) (binary (1 = stabilised)); higher = stabilised by the compound. As to conditions: system: Jurkat gel-filtered lysate; concentration range 1-500 µM. The protocol: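 2D thermal proteome profiling in gel-filtered Jurkat E6.1 lysate (2 mg/ml) treated with NaGTP (0, 1, 10, 100, 500 uM) for 10 min at room temperature, then heated 3 min at one of 12 temperatures (42-63.9 C). Soluble protein was quantified by TMT10 MS. The value is the DLPTP call of the paper: dose-dependent thermal stabilisation over all temperatures at 10% FDR (F-test of a dose-response against a flat model); one experiment, one call per tested protein.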
Regarding STARD10 (UniProt Q9Y365), the “dose-dependent thermal stabilisation call” value is inactive: 0.
Then STK39 (UniProt Q9UEW8), with active: 1; and SRSF4 (UniProt Q08170), with active: 1.
Then SIRT1 (UniProt Q96EB6), with active: 1; and SLIRP (UniProt Q9GZT3), with inactive: 0.
SSBP1 (UniProt Q04837): the “dose-dependent thermal stabilisation call” value is inactive: 0.
As for SNTB2 (UniProt Q13425), the “dose-dependent thermal stabilisation call” value is inactive: 0.
Consider SYNRG (UniProt Q9UMZ2), for which the “dose-dependent thermal stabilisation call” value is inactive: 0.
Then SMAD3 (UniProt P84022), with active: 1; and SSBP2 (UniProt P81877), with inactive: 0; and STRAP (UniProt Q9Y3F4), with inactive: 0.
For the target SP1 (UniProt P08047), the “dose-dependent thermal stabilisation call” value was inactive: 0.
Then SMTN (UniProt P53814), with inactive: 0; and SLAIN1 (UniProt Q8ND83), with inactive: 0; and STAG2 (UniProt Q8N3U4), with inactive: 0.
Next, STAT2 (UniProt P52630): active: 1; SWAP70 (UniProt Q9UH65): active: 1; STX5 (UniProt Q13190): inactive: 0.
On to SSNA1 (UniProt O43805), for which the “dose-dependent thermal stabilisation call” value was inactive: 0.
Then SSH2 (UniProt Q76I76), with inactive: 0; and TAB1 (UniProt Q15750), with inactive: 0.
For SNU13 (UniProt P55769), the “dose-dependent thermal stabilisation call” value is inactive: 0.
Regarding SNX8 (UniProt Q9Y5X2), the “dose-dependent thermal stabilisation call” value is inactive: 0.
Regarding SOX4 (UniProt Q06945), the “dose-dependent thermal stabilisation call” value is inactive: 0.
For SMAD4 (UniProt Q13485), the “dose-dependent thermal stabilisation call” value is inactive: 0.
As for SLC12A2 (UniProt P55011), the “dose-dependent thermal stabilisation call” value is inactive: 0.
Then SMARCD2 (UniProt Q92925), with inactive: 0.
As for SIN3A (UniProt Q96ST3), the “dose-dependent thermal stabilisation call” value is inactive: 0.
With SHOC2 (UniProt Q9UQ13), the “dose-dependent thermal stabilisation call” value is inactive: 0.
Take SNUPN (UniProt O95149): the “dose-dependent thermal stabilisation call” value is active: 1.
Turning to SHARPIN (UniProt Q9H0F6), the “dose-dependent thermal stabilisation call” value is inactive: 0.
On to TAF6L (UniProt Q9Y6J9), for which the “dose-dependent thermal stabilisation call” value was inactive: 0.
Then STMN1 (UniProt P16949), with inactive: 0.
SKI (UniProt P12755): the “dose-dependent thermal stabilisation call” value is inactive: 0.
As for SPIN1 (UniProt Q9Y657), the “dose-dependent thermal stabilisation call” value is inactive: 0.
As to SNAP23 (UniProt O00161), the “dose-dependent thermal stabilisation call” value is inactive: 0.
For the target SPAG5 (UniProt Q96R06), the “dose-dependent thermal stabilisation call” value is active: 1.
Next, TAF2 (UniProt Q6P1X5): inactive: 0; SPTBN2 (UniProt O15020): inactive: 0; SMG5 (UniProt Q9UPR3): inactive: 0.

These data come from the supplement of paper PMC7666118.
